# Data from PMC6986443, “T‐495, a novel low cooperative M1 receptor positive allosteric modulator, improves memory deficits associated with cholinergic dysfunction and is characterized by low gastrointestinal side effect risk” (Pharmacology Research & Perspectives, 2020).
# Tested on: CaMKIIα‐tTA/A53T α‐syn dTg mice
# Assay: Contextual fear conditioning (CFC) test
# Format: in vivo, mouse
# Procedure: The CFC test was performed in a clear conditioning chamber (33 cm wide, 25 cm long, and 28 cm high; O’Hara & Co., Ltd.) surrounded by a sound‐attenuating box. The illumination in the chamber was maintained at 100 lux. Conditioned stimulus (CS) and unconditioned stimulus (US) were automatically delivered by a tone generator and a shock generator (O’Hara & Co., Ltd.), respectively. On Day 1 (habituation phase), vehicle was orally administered, and mice were placed in the conditioning chamber. They were allowed to freely explore for 120 seconds and then returned to their home cages. […] Mice were placed in the chamber for 120 seconds before the onset of a tone (CS, 60 dB for 30 s). The last 2 seconds of the CS were paired with a foot shock (US, 0.25 mA), and mice were removed and returned to their home cages 180 seconds after the US. […] Mice were again placed in the same chamber for 180 seconds. Freezing behavior was analyzed using ImageJ FZ4 (O’Hara & Co., Ltd.) during the conditioning and retention phases.
compound,measurement,setting,value
"COc1cc2c(cc1OC)C(=O)C(CC1CCN(Cc3ccccc3)CC1)C2 (centres unmarked) [donepezil, reference compound]",level of freezing behavior during the conditioning phase,1 mg/kg p.o.,did not affect
same,reduced level of freezing behavior during the retention phase,1 mg/kg p.o. 2 h before conditioning and retention,significantly reversed
